Measurements as given in PMC12218103.
These are yes or no findings as the source states them, for the method shown. In cells and extracts the contact can be indirect. Sequences can lack the tags named with a protein.

Molecular target: T1, Emerald-tagged ERGIC53 (UniProt P49257)
T1 sequence: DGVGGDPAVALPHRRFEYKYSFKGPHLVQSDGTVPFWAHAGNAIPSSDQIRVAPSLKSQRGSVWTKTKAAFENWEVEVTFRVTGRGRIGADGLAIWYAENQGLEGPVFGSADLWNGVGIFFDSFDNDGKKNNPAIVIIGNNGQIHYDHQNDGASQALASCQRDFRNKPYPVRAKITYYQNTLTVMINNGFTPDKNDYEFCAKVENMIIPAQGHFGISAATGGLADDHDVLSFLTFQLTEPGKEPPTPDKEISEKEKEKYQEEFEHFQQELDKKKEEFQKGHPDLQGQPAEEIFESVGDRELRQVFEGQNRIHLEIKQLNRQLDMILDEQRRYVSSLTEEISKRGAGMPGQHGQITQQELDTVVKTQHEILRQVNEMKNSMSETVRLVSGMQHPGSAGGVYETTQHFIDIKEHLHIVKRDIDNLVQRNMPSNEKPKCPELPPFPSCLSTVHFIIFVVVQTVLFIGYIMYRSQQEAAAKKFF
Test: co-IP; Emerald-ERGIC53 expressed in HEK293FT cells; lysis in 0.5% NP40 buffer; lysate diluted in 10 mM Tris, 150 mM NaCl, 0.5 mM EDTA and incubated with GFP-trap agarose beads 1 h at 4 °C; endogenous TUG sought in the immunoprecipitates

binding: no binding
B1: TUG protein (Tether, containing a UBX domain, for GLUT4), endogenous in HEK293FT cells (protein, UniProt Q9BZE9 1-553)
chain: MAAPAGGGGSAVSVLAPNGRRHTVKVTPSTVLLQVLEDTCRRQDFNPCEYDLKFQRSVLDLSLQWRFANLPNNAKLEMVPASRSREGPENMVRIALQLDDGSRLQDSFCSGQTLWELLSHFPQIRECLQHPGGATPVCVYTRDEVTGEAALRGTTLQSLGLTGGSATIRFVMKCYDPVGKTPGSLGSSASAGQAAASAPLPLESGELSRGDLSRPEDADTSGPCCEHTQEKQSTRAPAAAPFVPFSGGGQRLGGPPGPTRPLTSSSAKLPKSLSSPGGPSKPKKSKSGQDPQQEQEQERERDPQQEQERERPVDREPVDREPVVCHPDLEERLQAWPAELPDEFFELTVDDVRRRLAQLKSERKRLEEAPLVTKAFREAQIKEKLERYPKVALRVLFPDRYVLQGFFRPSETVGDLRDFVRSHLGNPELSFYLFITPPKTVLDDHTQTLFQANLFPAALVHLGAEEPAGVYLEPGLLEHAISPSAADVLVARYMSRAAGSPSPLPAPDPAPKSEPAAEEGALVPPEPIPGTAQPVKRSLGKVPKWLKLPASKR
